From patent US20120165265A1, “Calcium Signaling Modulators Involving STIM and ORAI Proteins” (priority 2009, published 2012)
These are yes or no findings as the source states them, for the method shown. Some results given as binding are weak or reduced against the parent protein; the word gives no strength.

By UniProt entry, the sequences of proteins in these tests, tags left out.
UniProt P40350: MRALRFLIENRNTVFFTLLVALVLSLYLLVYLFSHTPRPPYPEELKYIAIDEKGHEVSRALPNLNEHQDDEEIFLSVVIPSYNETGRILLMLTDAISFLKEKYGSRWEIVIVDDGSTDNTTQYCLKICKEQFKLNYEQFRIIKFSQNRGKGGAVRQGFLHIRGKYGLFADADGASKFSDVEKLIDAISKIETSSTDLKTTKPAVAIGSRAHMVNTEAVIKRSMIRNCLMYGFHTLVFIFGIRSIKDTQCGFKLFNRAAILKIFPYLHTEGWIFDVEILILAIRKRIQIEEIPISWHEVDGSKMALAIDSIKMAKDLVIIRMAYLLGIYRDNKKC

Target: Alg5 (UniProt P40350)
Assay: yeast split ubiquitin assay (FIG. 3F)

binding: binds
Substance: Alg5 (from UniProt P40350 1-334)
